The list shows a part of the results.
Experiments:
Test in all cases: log2 fold change, soluble protein after heating vs DMSO (PISA); higher = thermal stabilisation; K562 cells, 10 uM, 30 min; active = over 0.2 and 3.5 SD of the protein, either way, in both replicates (recomputed)
[1] = compound: C1=CC=C(C=C1)[C@H](COC2=CC3=C(C=C2)NC(=O)N3)NC(=O)C4=CC=CN(C4=O)CC5=CC(=C(C=C5)F)F
Method in brief: (§1)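 Aliquots of K562 cells (2×10^6 cells/mL) treated with 10 μM compound for 30 min were heated for 3 min over 48°C-58°C. After pooling and extraction in PBS with 0.5% NP-40 at 4°C, soluble protein from a 21,000xg, 90 min spin was quantified by TMTpro 16plex LC-MS/MS with channel sums equalised. Thermal stability is expressed against control samples, from duplicates, as a log2 fold change.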

The chains behind the UniProt entries cited, without tags or fusion partners. Where a name states a change or a piece, a line headed by the entry shows the natural chain unless it says otherwise.
UniProt Q6FIF0: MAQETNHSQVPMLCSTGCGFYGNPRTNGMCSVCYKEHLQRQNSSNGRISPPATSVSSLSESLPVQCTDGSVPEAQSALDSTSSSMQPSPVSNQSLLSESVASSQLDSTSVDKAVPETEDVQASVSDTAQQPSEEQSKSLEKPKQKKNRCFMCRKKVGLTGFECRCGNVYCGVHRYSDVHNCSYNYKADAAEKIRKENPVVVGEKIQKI
UniProt Q9ULJ6: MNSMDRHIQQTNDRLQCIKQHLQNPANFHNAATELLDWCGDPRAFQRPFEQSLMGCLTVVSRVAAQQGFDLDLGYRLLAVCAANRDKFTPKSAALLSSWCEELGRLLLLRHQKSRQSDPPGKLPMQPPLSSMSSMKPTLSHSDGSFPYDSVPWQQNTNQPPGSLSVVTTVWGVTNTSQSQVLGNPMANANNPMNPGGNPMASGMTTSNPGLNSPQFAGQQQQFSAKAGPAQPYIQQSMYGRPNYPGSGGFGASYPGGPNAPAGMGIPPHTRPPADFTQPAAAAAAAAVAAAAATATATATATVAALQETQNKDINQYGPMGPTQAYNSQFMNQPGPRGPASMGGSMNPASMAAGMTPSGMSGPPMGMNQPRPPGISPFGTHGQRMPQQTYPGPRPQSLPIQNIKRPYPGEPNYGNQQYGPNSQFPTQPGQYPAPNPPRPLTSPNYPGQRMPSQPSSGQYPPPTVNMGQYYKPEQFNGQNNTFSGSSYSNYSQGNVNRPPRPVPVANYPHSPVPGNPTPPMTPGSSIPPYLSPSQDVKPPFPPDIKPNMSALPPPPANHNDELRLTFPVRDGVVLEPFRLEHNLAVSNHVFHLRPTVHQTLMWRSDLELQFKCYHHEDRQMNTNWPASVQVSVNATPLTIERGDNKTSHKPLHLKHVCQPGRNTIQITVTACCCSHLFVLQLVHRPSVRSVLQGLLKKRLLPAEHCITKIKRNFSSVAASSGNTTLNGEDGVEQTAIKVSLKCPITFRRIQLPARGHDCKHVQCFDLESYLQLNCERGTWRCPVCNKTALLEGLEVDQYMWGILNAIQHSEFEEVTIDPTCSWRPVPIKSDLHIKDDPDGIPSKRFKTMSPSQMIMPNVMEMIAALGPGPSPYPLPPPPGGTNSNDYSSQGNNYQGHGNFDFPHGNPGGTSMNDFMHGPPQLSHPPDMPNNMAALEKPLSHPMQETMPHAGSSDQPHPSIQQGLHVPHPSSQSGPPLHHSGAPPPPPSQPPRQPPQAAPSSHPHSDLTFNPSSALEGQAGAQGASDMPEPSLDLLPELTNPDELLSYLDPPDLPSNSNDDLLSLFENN
UniProt Q9Y548: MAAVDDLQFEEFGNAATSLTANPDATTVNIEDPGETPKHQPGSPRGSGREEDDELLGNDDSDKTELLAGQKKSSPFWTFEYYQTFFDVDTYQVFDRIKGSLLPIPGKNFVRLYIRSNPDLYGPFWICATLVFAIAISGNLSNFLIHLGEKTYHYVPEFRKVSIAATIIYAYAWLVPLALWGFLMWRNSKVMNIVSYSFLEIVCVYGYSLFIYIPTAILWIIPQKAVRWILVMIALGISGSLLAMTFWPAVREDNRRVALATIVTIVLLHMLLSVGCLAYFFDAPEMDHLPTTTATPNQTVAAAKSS
UniProt O43298: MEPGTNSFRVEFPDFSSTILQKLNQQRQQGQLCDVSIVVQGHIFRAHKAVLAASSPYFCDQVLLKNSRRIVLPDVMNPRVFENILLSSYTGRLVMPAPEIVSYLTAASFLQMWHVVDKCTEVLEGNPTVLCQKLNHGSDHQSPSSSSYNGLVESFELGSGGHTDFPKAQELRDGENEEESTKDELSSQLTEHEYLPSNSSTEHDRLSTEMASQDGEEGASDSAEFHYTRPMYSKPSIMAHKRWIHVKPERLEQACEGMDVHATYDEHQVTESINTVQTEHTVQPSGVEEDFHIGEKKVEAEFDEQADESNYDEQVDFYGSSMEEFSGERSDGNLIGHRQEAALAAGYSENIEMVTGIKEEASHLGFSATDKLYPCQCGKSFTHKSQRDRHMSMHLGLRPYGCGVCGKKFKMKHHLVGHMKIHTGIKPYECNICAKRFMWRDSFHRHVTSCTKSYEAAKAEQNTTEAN
UniProt O43670: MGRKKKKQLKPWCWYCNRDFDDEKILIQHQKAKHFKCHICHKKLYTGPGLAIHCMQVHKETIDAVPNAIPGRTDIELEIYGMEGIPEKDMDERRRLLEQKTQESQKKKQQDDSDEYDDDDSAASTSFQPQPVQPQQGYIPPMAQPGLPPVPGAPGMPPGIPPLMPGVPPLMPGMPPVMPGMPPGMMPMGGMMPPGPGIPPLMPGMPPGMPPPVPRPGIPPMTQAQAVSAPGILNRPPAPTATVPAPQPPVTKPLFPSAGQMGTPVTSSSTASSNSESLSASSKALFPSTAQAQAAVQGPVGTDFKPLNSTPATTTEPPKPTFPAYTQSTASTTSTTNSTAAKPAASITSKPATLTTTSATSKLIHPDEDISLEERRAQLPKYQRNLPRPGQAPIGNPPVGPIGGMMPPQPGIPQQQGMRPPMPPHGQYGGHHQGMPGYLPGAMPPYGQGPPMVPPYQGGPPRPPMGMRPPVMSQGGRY
UniProt Q96K21: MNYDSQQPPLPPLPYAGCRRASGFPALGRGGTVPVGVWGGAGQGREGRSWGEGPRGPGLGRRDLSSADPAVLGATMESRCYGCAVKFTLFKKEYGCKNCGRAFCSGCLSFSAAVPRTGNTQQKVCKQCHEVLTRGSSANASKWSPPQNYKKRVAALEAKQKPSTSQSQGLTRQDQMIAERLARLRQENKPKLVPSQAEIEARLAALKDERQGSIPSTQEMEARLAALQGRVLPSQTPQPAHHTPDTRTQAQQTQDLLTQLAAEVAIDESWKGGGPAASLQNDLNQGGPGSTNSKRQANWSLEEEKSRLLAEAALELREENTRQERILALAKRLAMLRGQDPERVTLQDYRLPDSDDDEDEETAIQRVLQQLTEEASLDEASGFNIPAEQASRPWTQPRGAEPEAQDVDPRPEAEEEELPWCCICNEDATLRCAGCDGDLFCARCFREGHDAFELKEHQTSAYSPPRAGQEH
UniProt Q9BSR8: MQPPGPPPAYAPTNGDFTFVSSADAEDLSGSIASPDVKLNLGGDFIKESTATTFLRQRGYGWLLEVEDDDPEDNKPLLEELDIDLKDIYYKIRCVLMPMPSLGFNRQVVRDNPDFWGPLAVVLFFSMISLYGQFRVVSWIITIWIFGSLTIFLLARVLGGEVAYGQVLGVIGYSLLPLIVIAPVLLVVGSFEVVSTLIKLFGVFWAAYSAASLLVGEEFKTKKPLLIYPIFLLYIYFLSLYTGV
UniProt O95070: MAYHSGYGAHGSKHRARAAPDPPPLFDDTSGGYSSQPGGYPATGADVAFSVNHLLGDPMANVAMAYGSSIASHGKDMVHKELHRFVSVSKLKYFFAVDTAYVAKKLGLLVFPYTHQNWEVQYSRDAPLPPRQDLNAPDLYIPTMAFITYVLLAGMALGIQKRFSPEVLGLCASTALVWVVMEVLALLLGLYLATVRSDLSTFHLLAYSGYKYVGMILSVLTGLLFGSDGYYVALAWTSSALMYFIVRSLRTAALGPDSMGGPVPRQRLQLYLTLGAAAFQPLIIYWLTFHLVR
UniProt O76080: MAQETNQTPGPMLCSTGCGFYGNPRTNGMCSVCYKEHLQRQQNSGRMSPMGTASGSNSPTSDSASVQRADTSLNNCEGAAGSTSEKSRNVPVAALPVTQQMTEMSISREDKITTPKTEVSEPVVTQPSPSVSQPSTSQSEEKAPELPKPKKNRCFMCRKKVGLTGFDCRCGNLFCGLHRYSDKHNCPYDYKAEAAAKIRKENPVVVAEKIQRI
UniProt P23025: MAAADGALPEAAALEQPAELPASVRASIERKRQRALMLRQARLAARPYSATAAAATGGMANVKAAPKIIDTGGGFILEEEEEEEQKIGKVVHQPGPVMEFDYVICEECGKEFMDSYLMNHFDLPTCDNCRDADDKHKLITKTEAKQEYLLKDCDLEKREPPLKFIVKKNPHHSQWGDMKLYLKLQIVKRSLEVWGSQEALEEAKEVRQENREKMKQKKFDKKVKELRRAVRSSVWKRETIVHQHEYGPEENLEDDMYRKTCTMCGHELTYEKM
UniProt Q8WW38: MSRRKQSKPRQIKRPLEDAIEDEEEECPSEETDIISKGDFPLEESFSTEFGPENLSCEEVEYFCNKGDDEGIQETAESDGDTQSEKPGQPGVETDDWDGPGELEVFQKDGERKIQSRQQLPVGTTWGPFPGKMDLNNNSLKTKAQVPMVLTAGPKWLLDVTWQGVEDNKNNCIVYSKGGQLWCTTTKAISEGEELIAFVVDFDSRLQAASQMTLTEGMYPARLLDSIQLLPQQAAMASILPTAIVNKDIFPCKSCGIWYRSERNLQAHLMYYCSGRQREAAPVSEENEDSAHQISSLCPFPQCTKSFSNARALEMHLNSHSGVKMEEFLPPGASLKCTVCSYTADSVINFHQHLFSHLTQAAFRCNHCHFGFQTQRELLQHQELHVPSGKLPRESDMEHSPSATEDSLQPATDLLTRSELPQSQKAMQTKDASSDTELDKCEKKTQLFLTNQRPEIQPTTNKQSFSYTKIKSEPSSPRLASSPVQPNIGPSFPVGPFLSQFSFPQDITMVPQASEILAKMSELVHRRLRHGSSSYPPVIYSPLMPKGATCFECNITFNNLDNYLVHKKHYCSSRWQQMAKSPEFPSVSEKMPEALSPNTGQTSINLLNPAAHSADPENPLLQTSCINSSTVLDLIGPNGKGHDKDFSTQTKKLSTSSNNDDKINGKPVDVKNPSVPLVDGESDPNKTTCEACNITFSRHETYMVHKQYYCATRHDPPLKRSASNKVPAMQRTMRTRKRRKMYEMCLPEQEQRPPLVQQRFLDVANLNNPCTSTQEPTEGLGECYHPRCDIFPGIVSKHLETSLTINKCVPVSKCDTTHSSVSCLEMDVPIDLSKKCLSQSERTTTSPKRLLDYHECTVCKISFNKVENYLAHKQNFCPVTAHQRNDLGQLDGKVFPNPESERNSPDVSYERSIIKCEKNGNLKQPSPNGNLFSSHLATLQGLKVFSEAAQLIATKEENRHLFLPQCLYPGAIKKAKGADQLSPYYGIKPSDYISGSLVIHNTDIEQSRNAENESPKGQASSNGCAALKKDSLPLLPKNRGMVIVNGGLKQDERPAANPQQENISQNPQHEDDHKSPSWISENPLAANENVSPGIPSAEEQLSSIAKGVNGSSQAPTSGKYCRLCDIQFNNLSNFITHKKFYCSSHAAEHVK
UniProt Q8IUH4: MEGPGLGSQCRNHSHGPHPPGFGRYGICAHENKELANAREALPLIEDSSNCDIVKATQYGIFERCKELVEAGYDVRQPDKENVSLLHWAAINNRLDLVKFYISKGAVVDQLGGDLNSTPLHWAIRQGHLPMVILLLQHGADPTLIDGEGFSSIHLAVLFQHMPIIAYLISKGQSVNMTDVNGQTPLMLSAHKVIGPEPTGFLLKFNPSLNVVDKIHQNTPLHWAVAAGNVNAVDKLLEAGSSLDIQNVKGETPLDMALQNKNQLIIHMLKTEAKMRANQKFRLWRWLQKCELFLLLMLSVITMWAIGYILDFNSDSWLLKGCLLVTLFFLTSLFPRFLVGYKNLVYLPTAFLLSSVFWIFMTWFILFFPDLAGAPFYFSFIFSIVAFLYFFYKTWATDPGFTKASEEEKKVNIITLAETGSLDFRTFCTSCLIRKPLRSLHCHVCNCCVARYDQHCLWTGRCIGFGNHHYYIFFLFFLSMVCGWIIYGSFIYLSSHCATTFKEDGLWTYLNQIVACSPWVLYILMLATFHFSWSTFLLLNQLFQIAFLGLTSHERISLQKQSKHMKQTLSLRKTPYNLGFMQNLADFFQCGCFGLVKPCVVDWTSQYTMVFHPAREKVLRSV
UniProt Q9ULC8: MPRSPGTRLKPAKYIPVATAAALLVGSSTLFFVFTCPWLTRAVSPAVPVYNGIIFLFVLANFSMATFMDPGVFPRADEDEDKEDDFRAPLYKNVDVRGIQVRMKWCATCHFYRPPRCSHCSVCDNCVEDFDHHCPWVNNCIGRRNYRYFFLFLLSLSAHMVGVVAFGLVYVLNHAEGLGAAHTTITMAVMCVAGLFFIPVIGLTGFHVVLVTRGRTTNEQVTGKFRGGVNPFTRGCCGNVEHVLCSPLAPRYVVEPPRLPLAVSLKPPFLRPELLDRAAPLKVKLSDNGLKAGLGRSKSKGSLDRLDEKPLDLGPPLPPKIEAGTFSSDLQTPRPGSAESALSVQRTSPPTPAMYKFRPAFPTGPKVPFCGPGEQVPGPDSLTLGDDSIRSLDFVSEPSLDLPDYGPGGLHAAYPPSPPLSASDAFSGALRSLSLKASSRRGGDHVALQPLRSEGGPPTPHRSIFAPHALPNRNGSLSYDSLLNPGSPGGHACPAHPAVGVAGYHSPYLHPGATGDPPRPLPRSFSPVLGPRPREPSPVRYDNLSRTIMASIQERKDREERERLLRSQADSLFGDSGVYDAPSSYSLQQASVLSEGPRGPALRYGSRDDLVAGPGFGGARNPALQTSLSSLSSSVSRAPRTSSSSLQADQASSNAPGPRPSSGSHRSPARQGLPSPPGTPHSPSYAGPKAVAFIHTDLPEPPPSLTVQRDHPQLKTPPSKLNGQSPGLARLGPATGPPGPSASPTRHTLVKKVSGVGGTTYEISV

[2] = compound: CC1=C(SC2=C1C(=N[C@H](C3=NN=C(N32)C)CC(=O)N)C4=CC=C(C=C4)Cl)C
Method in brief: as §1

[3] = compound: CC1=C2C(=CC=C1)N=C(N(C2=O)C3=CC=CC=C3C)CN4C=NC5=C(N=CN=C54)N
Method in brief: as §1

[4] = compound: Cc1sc2c(c1C)C(c1ccc(Cl)cc1)=N[C@@H](CC(=O)OC(C)(C)C)c1nnc(C)n1-2
Method in brief: as §1

[5] = compound: c1ccc([C@@H]2C[C@H]2NC2CCNCC2)cc1
Method in brief: as §1

Measured: log2 fold change

XPNPEP1 isoform 3 (UniProt Q9NQW7)
inactive: [1] -0.017 | [2] 0.081 | [3] 0.021 | [4] 0.002 | [5] -0.029

ZBTB8OS (UniProt Q8IWT0)
inactive: [1] -0.08 | [2] 0.037 | [3] 0.105 | [4] 0.118 | [5] 0.024

ZNF239 (UniProt Q16600)
inactive: [1] -0.17 | [2] -0.151 | [3] -0.06 | [4] -0.082 | [5] 0.06

ZBED1 (UniProt O96006)
inactive: [1] 0.036 | [2] 0.176 | [4] 0.016 | [5] -0.001

ZFAND6 (UniProt Q6FIF0)
inactive: [1] 0 | [2] -0.015 | [3] 0.042 | [4] -0.143 | [5] 0.004

ZMIZ1 (UniProt Q9ULJ6)
inactive: [1] -0.023 | [2] 0.083 | [3] 0.044 | [4] 0.031 | [5] 0.041

YES1 (UniProt P07947)
inactive: [1] 0.025 | [2] -0.056 | [3] 0.126 | [4] -0.005 | [5] -0.038

YIPF1 (UniProt Q9Y548)
inactive: [1] -0.292 | [2] 0.053 | [3] -0.01 | [4] 0.123 | [5] 0.038

ZBTB43 (UniProt O43298)
inactive: [1] -0.105 | [2] 0.013 | [3] 0.055 | [4] -0.097 | [5] -0.08

ZMIZ2 (UniProt Q8NF64)
inactive: [1] -0.026 | [2] 0.031 | [3] 0.096 | [4] -0.152 | [5] 0.04

YIPF2 (UniProt Q9BWQ6)
inactive: [1] 0.021 | [2] -0.24 | [4] -0.222 | [5] -0.12

XRCC4 (UniProt Q13426)
inactive: [1] 0.009 | [2] -0.014 | [3] 0.058 | [4] -0.013 | [5] 0.004

YWHAG (UniProt P61981)
inactive: [1] 0.009 | [2] -0.036 | [3] -0.076 | [4] -0.014 | [5] -0.002

ZDHHC3 isoform 2 (UniProt Q9NYG2)
inactive: [1] 0.037 | [2] 0.142 | [3] -0.026 | [4] -0.017 | [5] 0.034

ZNF207 isoform 4 (UniProt O43670)
inactive: [1] 0.005 | [2] 0 | [3] -0.046 | [4] -0.016 | [5] -0.013

YPEL5 (UniProt P62699)
inactive: [1] -0.066 | [2] 0.044 | [3] 0.016 | [5] -0.081

XPO5 (UniProt Q9HAV4)
inactive: [1] -0.037 | [2] 0.042 | [3] 0.02 | [4] -0.024 | [5] -0.01

ZNF207 isoform 2 (UniProt O43670)
inactive: [1] -0.066 | [2] 0.106 | [3] -0.14 | [4] 0.004 | [5] 0.152

ZBTB21 (UniProt Q9ULJ3)
inactive: [1] -0.215 | [2] -0.152 | [3] 0.058 | [4] 0.244 | [5] 0.006

XPOT (UniProt O43592)
inactive: [1] -0.028 | [2] 0.06 | [3] 0.083 | [4] -0.002 | [5] -0.001

ZFYVE19 (UniProt Q96K21)
inactive: [1] 0.016 | [2] 0.017 | [3] 0.038 | [4] -0.033 | [5] 0.04

ZBTB3 (UniProt Q9H5J0)
inactive: [1] -0.024 | [2] 0.141 | [3] 0.164 | [4] -0.06 | [5] -0.001

ZFP91 (UniProt Q96JP5)
inactive: [1] -0.038 | [2] -0.221 | [3] -0.052 | [4] 0.096 | [5] 0.03

ZC3HC1 (UniProt Q86WB0)
inactive: [1] -0.091 | [2] 0.07 | [3] 0.1 | [4] -0.032 | [5] -0.018

XPO6 (UniProt Q96QU8)
inactive: [1] 0.35 | [2] 0.019 | [3] 0.082 | [4] 0.015 | [5] -0.072

YIPF4 (UniProt Q9BSR8)
inactive: [1] -0.027 | [2] 0.001 | [3] -0.019 | [4] 0.027 | [5] 0.046

YIF1A (UniProt O95070)
inactive: [1] 0.024 | [2] 0.122 | [3] -0.012 | [4] -0.043 | [5] -0.109

ZFAND5 (UniProt O76080)
inactive: [1] -0.025 | [2] -0.21 | [3] -0.129 | [4] -0.024 | [5] 0.143

YWHAQ (UniProt P27348)
inactive: [1] -0.031 | [2] 0.009 | [3] -0.152 | [4] -0.089 | [5] -0.083

Two successive entries from above:
ZFAND5 (UniProt O76080)
inactive: [1] -0.025 | [2] -0.21 | [3] -0.129 | [4] -0.024 | [5] 0.143

YWHAQ (UniProt P27348)
inactive: [1] -0.031 | [2] 0.009 | [3] -0.152 | [4] -0.089 | [5] -0.083

(next part)

XIAP (UniProt P98170)
inactive: [1] 0.05 | [2] 0.003 | [3] 0 | [4] 0.048 | [5] 0.002

XPA (UniProt P23025)
inactive: [3] 0.071 | [4] 0.115

XPC (UniProt Q01831)
inactive: [2] -0.44 | [3] -0.082 | [5] -0.154

ZMYND8 isoform 19 (UniProt Q9ULU4)
inactive: [1] -0.048 | [2] -0.003 | [5] 0.044

ZFPM2 (UniProt Q8WW38)
inactive: [2] 0.224 | [4] -0.099 | [5] 0.232

ZDHHC13 (UniProt Q8IUH4)
inactive: [2] 0.079 | [5] -0.112

ZNF148 (UniProt Q9UQR1)
inactive: [1] 0.103 | [2] 0.015 | [4] -0.044 | [5] -0.115

ZKSCAN8 (UniProt Q15776)
inactive: [3] 0.111 | [4] 0.097

ZBTB17 isoform 2 (UniProt Q13105)
inactive: [1] -0.08 | [4] -0.019

ZDHHC8 isoform 3 (UniProt Q9ULC8)
inactive: [1] 0.105 | [4] 0

— the supplement of paper PMC10849652
